{
  "source": "PubChem BioAssay AID651640",
  "about": "(Broad Institute, 2012)",
  "note": "In all, about 350,000 compounds went through this assay and about 6,000 (1.7%) were called active. Inconclusive means that the source gave no clear call. Such entries were picked first, then a sample of the others. No stated cut-off is given here; in the data, active means CPE inhibition above about 20% (passing the limit was not always enough); inconclusive means no clear call, values can overlap the other calls; tested in BHK-21 cells.",
  "data": [
    {"assay": "protection of cells from dengue 2 killing – plate reader, single concentration, primary screen (AID 651640);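 further: 0% = median of neutral control wells and 100% = median of positive control wells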", "details": "DENV2-infected cells, cytopathic effect rescue, at 9.99 µM, active compounds read high", "values": [
      {"smiles": "C=Cc1c(C)c2cc3[nH]c(cc4nc(cc5nc(cc1[nH]2)C(C)=C5CCC(=O)O)C(CCC(=O)O)=C4C)c(C)c3C=C", "CPE inhibition": "inconclusive: 85.6%"},
      {"smiles": "NS(=O)(=O)c1ccc(CNC(=O)c2cc(S(=O)(=O)N3CCOCC3)ccc2N2CCCC2)cc1", "CPE inhibition": "inconclusive: 58%"},
      {"smiles": "COc1ccc2nc3sc(C(=O)NCCN4CCc5ccccc5C4)cc3cc2c1", "CPE inhibition": "inactive: 2.3%"},
      {"smiles": "O=C(C[C@H]1C[C@H]2c3cc(NC(=O)NC4CCCC4)ccc3O[C@H]2[C@H](CO)O1)NC1CCCCC1", "CPE inhibition": "inconclusive: 53.4%"},
      {"smiles": "CC=Cc1ccc2n(c1=O)C[C@H]1[C@H](CO)[C@@H](C(=O)NCCC)N(Cc3cocn3)[C@@H]21", "note": "(mixture of isomers)", "CPE inhibition": "active: 78.4%"},
      {"smiles": "CCOC(=O)c1csc(NC(=O)CN2CCOCC2)n1", "CPE inhibition": "inconclusive: 32.3%"},
      {"smiles": "O=C(Nc1cccc(Cl)c1)Nc1cnccn1", "CPE inhibition": "inconclusive: 50.4%"},
      {"smiles": "C[C@@H]1CN([C@@H](C)CO)C(=O)c2cc(NC(=O)Cc3ccccc3)ccc2O[C@@H]1CN(C)Cc1ccncc1", "CPE inhibition": "inactive: 2.78%"},
      {"smiles": "C=Cc1ccc(COC(=O)c2cn(CC)c3nc(C)ccc3c2=O)cc1", "CPE inhibition": "inactive: 3.18%"},
      {"smiles": "CNC(=O)C[C@@H]1CC[C@@H]2[C@@H](COc3ccc(NC(=O)Nc4ccc(Cl)cc4)cc3C(=O)N2C)O1", "CPE inhibition": "inconclusive: 69.1%"},
      {"smiles": "COc1ccccc1NC(=O)N[C@@H]1CC[C@H](CC(=O)NCc2ccc(Cl)c(Cl)c2)O[C@H]1CO", "CPE inhibition": "inconclusive: 36.4%"},
      {"smiles": "Cc1noc(C)c1NC(=O)N(C)C[C@H]1Oc2ccc(NC(=O)NC3CCCCC3)cc2C(=O)N([C@H](C)CO)C[C@H]1C", "CPE inhibition": "inconclusive: 25.9%"},
      {"smiles": "Cc1noc(C)c1NC(=O)N(C)C[C@@H]1OCCCC[C@H](C)Oc2ccc(NC(=O)C3CCCCC3)cc2C(=O)N([C@@H](C)CO)C[C@@H]1C", "CPE inhibition": "inactive: 14.2%"},
      {"smiles": "CCN(CC)c1ccc(C(NC(=O)C(C)C)c2ccc3cccnc3c2O)cc1", "note": "(centres undefined)", "CPE inhibition": "inactive: 2.18%"},
      {"smiles": "COc1ccc(CN(C)C[C@H]2Oc3c(NS(=O)(=O)c4ccc(F)cc4)cccc3C(=O)N([C@@H](C)CO)C[C@@H]2C)cc1", "CPE inhibition": "inconclusive: 23.2%"},
      {"smiles": "COCCN(C(=O)COC(=O)Cc1coc2cc3c(cc12)CCC3)c1c(N)n(Cc2ccccc2)c(=O)[nH]c1=O", "CPE inhibition": "inconclusive: 77.9%"},
      {"smiles": "Cc1cc(C)nc(SCC(=O)Nc2nc(-c3ccccc3)c(-c3ccccc3)o2)n1", "CPE inhibition": "inconclusive: 50%"},
      {"smiles": "Cc1noc(C)c1NC(=O)N(C)C[C@H]1OCCCC[C@H](C)Oc2ccc(NC(=O)c3ccccc3)cc2C(=O)N([C@@H](C)CO)C[C@H]1C", "CPE inhibition": "inactive: -2.48%"},
      {"smiles": "CCOc1ccc(N(CC(=O)NC2CCCCC2C)S(=O)(=O)c2c(C)noc2C)cc1", "note": "(centres undefined)", "CPE inhibition": "inconclusive: 43.1%"},
      {"smiles": "COc1ccc(CN2C[C@H](O)COC[C@@H]3O[C@H](CC(=O)NCCN4CCCC4)CC[C@H]32)cc1", "CPE inhibition": "inactive: 3.47%"},
      {"smiles": "COc1ccc(NC(=O)Nc2ccc3c(c2)C(=O)N([C@@H](C)CO)C[C@@H](C)[C@@H](CN(C)C(=O)Nc2ccc(C(F)(F)F)cc2)O3)cc1", "CPE inhibition": "inconclusive: 28.9%"},
      {"smiles": "O=C(OCc1ccccc1Cl)c1cc([N+](=O)[O-])ccc1N1CCOCC1", "CPE inhibition": "inconclusive: 36.3%"},
      {"smiles": "CC(C)NC(=O)N(C)C[C@@H]1OCCCC[C@@H](C)Oc2ccc(NC(=O)Nc3cccc4ccccc34)cc2C(=O)N([C@@H](C)CO)C[C@H]1C", "CPE inhibition": "inconclusive: 31.6%"},
      {"smiles": "Cc1noc(C)c1NC(=O)N(C)C[C@H]1OCCCC[C@H](C)Oc2ccc(NC(=O)C3CCCCC3)cc2C(=O)N([C@@H](C)CO)C[C@H]1C", "CPE inhibition": "inconclusive: 56.9%"},
      {"smiles": "Clc1ccc2oc(-c3ccccc3)cc(=NCCCN3CCOCC3)c2c1", "CPE inhibition": "inactive: 3.2%"},
      {"smiles": "Cc1ccc(S(=O)(=O)Nc2ccccc2C(=O)NCc2cccnc2)cc1", "CPE inhibition": "inactive: 4.51%"},
      {"smiles": "O=[N+]([O-])c1ccc(N2CCOCC2)cc1SCc1ccco1", "CPE inhibition": "inconclusive: 22.3%"},
      {"smiles": "CC(=O)Oc1ccc(/C=N/NC2=NS(=O)(=O)c3ccccc32)cc1", "CPE inhibition": "inconclusive: 23.1%"},
      {"smiles": "C[C@H]1CN(S(=O)C(C)(C)C)[C@H](CCO)/C1=C\\c1ccccc1", "note": "(some centres undefined)", "CPE inhibition": "inconclusive: 37.2%"},
      {"smiles": "C[C@@H]1CN([C@@H](C)CO)C(=O)c2cc(C#CCN(C)C)cnc2O[C@H]1CN(C)C(=O)c1ccc(F)cc1", "CPE inhibition": "inactive: 4.78%"},
      {"smiles": "COc1ccc(CNC(=O)c2cnc3scc(C)n3c2=O)cc1", "CPE inhibition": "inconclusive: 47.6%"},
      {"smiles": "O=C(Nc1ccccc1)Nc1nnc(Cc2ccccc2F)s1", "CPE inhibition": "inconclusive: 30.2%"},
      {"smiles": "O=C(c1ccc2c(c1)OCO2)N1CCN(S(=O)(=O)c2ccccc2)CC1", "CPE inhibition": "inactive: -0.565%"},
      {"smiles": "CO[C@@H]1CN(C)C(=O)c2cc(NS(=O)(=O)CC(F)(F)F)ccc2OC[C@H](C)N(CC2CCCCC2)C[C@@H]1C", "CPE inhibition": "inactive: 4.96%"},
      {"smiles": "COc1ccc(CN(C)C[C@H]2OCCCC[C@H](C)Oc3ccc(NS(=O)(=O)c4ccc(Cl)cc4)cc3C(=O)N([C@@H](C)CO)C[C@@H]2C)cc1", "CPE inhibition": "active: 29.6%"},
      {"smiles": "O=S(=O)(NCC[C@@H]1CC[C@H](NS(=O)(=O)c2cccc(F)c2)[C@H](CO)O1)c1cccc(F)c1", "CPE inhibition": "inconclusive: 22.6%"},
      {"smiles": "O=C1CN(Cc2ccc(F)cc2)C[C@H]2[C@H](c3ccc(Br)cc3)[C@H](CO)N12", "CPE inhibition": "inactive: -3.93%"},
      {"smiles": "O=C(NC1CC(=O)N(c2ccc(F)cc2)C1)C(=O)c1c[nH]c2ccccc12", "note": "(centres undefined)", "CPE inhibition": "inconclusive: 36%"},
      {"smiles": "COc1ccc(NC(=O)N2CC(=O)N3[C@H](C2)[C@@H](c2ccc(C4=CCCC4)cc2)[C@@H]3CO)cc1", "CPE inhibition": "inactive: -11.5%"},
      {"smiles": "CCN1CCN(C(CNS(=O)(=O)c2ccc(F)cc2)c2cccnc2)CC1", "note": "(centres undefined)", "CPE inhibition": "inconclusive: 29.1%"},
      {"smiles": "Cc1cc(-n2c(SCC(=O)Nc3ccc(F)c(F)c3)nc3n[nH]c(C)c3c2=N)ccc1Cl", "CPE inhibition": "inactive: 0.324%"},
      {"smiles": "O=C(Nc1cccc(Cl)c1)OCCN1CCN(Cc2ccccc2)CCC1=O", "CPE inhibition": "inconclusive: 82.2%"},
      {"smiles": "Cc1c(NC(=S)N/N=C\\c2ccccc2O)c(=O)n(-c2ccccc2)n1C", "CPE inhibition": "inconclusive: 52.1%"},
      {"smiles": "Cc1ccc(S(=O)(=O)Nc2cc(=O)[nH]c3c2CCC3)cc1", "CPE inhibition": "inconclusive: 21.7%"}
    ]}
  ]
}
